This note sets out measurements from article PMC11849849.

No constants are given. Whether binding was seen depends on the method and setting. Binding seen in cells or lysates may run through a third protein. A yes stands for co-enrichment or nearness to the bait. Other partners may have been found.

For the assay, the target named is gp335-sfGFP (Pseudomonas phage Churi). Description: affinity purification with mass spectrometry; gp335-sfGFP as bait expressed in P. aeruginosa PAO1 (0.4% arabinose); lysate precleared with protein A beads; anti-GFP antibody (Chromotek) 16 h at 8°C, then protein A beads 3 h at 25°C; washes with 1x PBS + 0.1% Tween 20 and 1x PBS; on-bead digestion, LC-MS/MS; proteins pulled down with sfGFP alone subtracted.

B1: Acyl-homoserine lactone acylase PvdQ (enzyme, UniProt Q9I194 24-762)
chain: DMPRPTGLAADIRWTAYGVPHIRAKDERGLGYGIGYAYARDNACLLAEEIVTARGERARYFGSEGKSSAELDNLPSDIFYAWLNQPEALQAFWQAQTPAVRQLLEGYAAGFNRFLREADGKTTSCLGQPWLRAIATDDLLRLTRRLLVEGGVGQFADALVAAAPPGAEKVALSGEQAFQVAEQRRQRFRLERGSNAIAVGSERSADGKGMLLANPHFPWNGAMRFYQMHLTIPGRLDVMGASLPGLPVVNIGFSRHLAWTHTVDTSSHFTLYRLALDPKDPRRYLVDGRSLPLEEKSVAIEVRGADGKLSRVEHKVYQSIYGPLVVWPGKLDWNRSEAYALRDANLENTRVLQQWYSINQASDVADLRRRVEALQGIPWVNTLAADEQGNALYMNQSVVPYLKPELIPACAIPQLVAEGLPALQGQDSRCAWSRDPAAAQAGITPAAQLPVLLRRDFVQNSNDSAWLTNPASPLQGFSPLVSQEKPIGPRARYALSRLQGKQPLEAKTLEEMVTANHVFSADQVLPDLLRLCRDNQGEKSLARACAALAQWDRGANLDSGSGFVYFQRFMQRFAELDGAWKEPFDAQRPLDTPQGIALDRPQVATQVRQALADAAAEVEKSGIPDGARWGDLQVSTRGQERIAIPGGDGHFGVYNAIQSVRKGDHLEVVGGTSYIQLVTFPEEGPKARGLLAFSQSSDPRSPHYRDQTELFSRQQWQTLPFSDRQIDADPQLQRLSIRE
Regarding B1, the binding entry is reported as “binds”.

B2: Probable transcriptional regulator (Q9I6N6) (protein, UniProt Q9I6N6 1-158)
chain: MTGPMTETNALGLPQGPLYLMTEIVRQRERQLTALLAPLELGLHEWRALRIIHAFDGDVPMSVLIEHSQTDRTALGRTIERLVRRGWVSRLPDPDDGRAVLVRRSPAAQAVFEQALAQVAGLDERLLAGLGSGPEEEALTLVLGKLLRAFDGLSRVRQ
Regarding B2, the binding result was “binds”.

B3: Probable dehydrogenase (enzyme, UniProt Q9HWU9 1-229)
chain: MHNVLIVGASRGIGLGLADAFLQRGAQVFAVARRPQGSPGLQALAERAGERLQAVTGDLNQHDCAERIGEMLGERRIDRLIVNAGIYGPQQQDVAEIDAEQTAQLFLTNAIAPLRLARALSGRVSRGGVVAFMSSQMASLALGLSATMPLYGASKAALNSLVRSWEGEFEELPFSLLLLHPGWVRTEMGGDSAPLSVEESAAGLVAAVEDAAGVNACRFVDYRNQPLPW
Consider B3, for which the binding entry is “binds”.

B4: Alpha-2-macroglobulin homolog (protein, UniProt Q9HVT2 27-1516)
chain: EDTVEPSGYTPMAGESFFLLADSSFATDEEARVRLEAPGRDYRRYRMEPYGGVDVRLYRIEQPLEFLKRQKNLHRVLAEGQFKGEGLSNTLAYLWDNWYRKSRRVMQRAFSYESRQQVTEAVPELKMGNAMTAPTPYDAQPQYAPIPGLPLVSQFRYPLWDAKPIEPPQDVKLAGSSSEFINVVPGNVYIPLGKLKPGLYLVEALVGKYRATTVVFVSNSVAVSKVAGDELLVWTARKHEGTPVPDTKVLWTDGLGVMSSGNTDADGLLRLKHASPERSYVIGEDREGGVFVSENFYYDSEIYDTKIYAFTDRPLYRPGDWVSLKMVGREFKDARQSQAAASAPVRLSVIDASGTVLQSLDLRFDAKSGANGRFQLPENAVAGGYELRFDYRGQTYSSAFRVAEYIKPHFEVALDLAKPDFKTAEPVKGEIVLLYPDGKPVANARLQLSLRAQQLSMVDNELQYLGQFPVELSSTELTTDGKGRAAIELPPAEKPSRYMLTIFASDGAAYRVKTSKEILIERGAARYRLSAPQRFSAAGEKVEFSYASEQPTPLKPSSYQWIRLEDRATDSGPVADGRFALTFERPGTYSVELRDDKGQLLGATGHSVSGEGVKSVPGTVEVVFDKPEYRTGEEASALITFPEPVEDALLSLERDKVEATALLSKGADWLRLEKLNPTQYRVWIPVREEFSPNLTFSVLYTKGGDYSFQNAGIKVGMPQVEIDIATDKERYEPGETVTVTLATRFAGKPVSSHLTVSVVDEMVYALQAEIAPGIDQFFYHPRRNNVRTSASLAFISYDVALPGSTSAPGRANRSERGVKVLERPRREDVDTAAWQPELVTDAQGKASFSFRMPDSLTRWRITARAIDDNGQVGQKKQFLRSEKPLYLKWSGPTRFRQGDQPDLGLFVFNQGEQPVKAELLSGPPGSQRSQTLELAKGVNYIPLAQQPLSDGDWSAELRQDGQVRDRLAVRFNLLADGWQVEQMQNLSLAAASNPLQLPADARDVRLRLADGPAAAYLGNLDDLLEYPYGGVEQTASQLLPLSIAYPALAGGEPRIRDRLRLIMQNSRLRLVQMAGPDAWFAWWGGDVDGDAFLTAYAYYADWYASRALEIQLPAEHWQRILEPYAKQATQTPLLQRALILAFARDMQLPVNTLLGGLLNDLANAGEGQARAEPLEADDGLVLGDPDSAVGLAAARVLAVDLARQLRVAVPAPLAAQAETATQRLREAGLPFTDALLASRSAVDGQQASALLQRLAPAQSTLERALALTWLQGALAQAPQGKLPQPPKDWQAQRGASGETYWQWRGRGIPSWVDLDEAPARPLPVALSYRSAQAPSGQLPVQISRRLLRLVPGEGAFEFKVEEVGDKPLSSDELYLDEVTLNVPEDTALRYGMLELPLPPGADVERTTWGIKISGLAGDEATTLERARNEPGELFYGVPVDSLSGEQRFRHLVRFSQKGSFNLPPARYLRLYAPEQQALEAKPALAKVKVE
Take B4: the binding entry is recorded as “binds”.

B5: 50S ribosomal protein L22 (protein, UniProt Q9HWE0 1-110)
chain: MEVAAKLSGARISAQKARLVADQIRGKKVGEALNLLAFSSKKAAEIMKKVLESAVANAEHNEGADVDDLKVSTVFVNEGRSLKRIMPRAKGRADRIVKRSCHITVKVADK
For the molecule B5, the binding entry is “binds”.

B6: Stringent starvation protein B (protein, UniProt Q9HVY8 1-135)
chain: MNSSRPYLVRALYEWIVDNDCTPHILVNAEFAGVKVPPGYASDGQIVLNVSPSAVRHLHMDNEAVSFEGRFGGVAQSLYIPALAVMAIYARENGQGMVFDLEQPGPVDDEPGDDDGGPSDEPPRPSGRPSLKVVK
B6: the binding result is recorded as “binds”.

B7: Probable transcriptional regulator (Q9I2Y0) (protein, UniProt Q9I2Y0 1-901)
chain: MDAVQDPAAGSLSRSRIVPPQVPAEYSLRPAIRNLLDRNPHSRVLMFSAPAGFGKTCALAALARERTVADQAVAWLSLAEEDDDPARFCRQLIEALGEAVPQLGDDAQTYLQNTMRVPVVAVIESLLGDLDRYARPLLLVLDDLHLVSNPDIFTGLNRLVQYAPPGLVLALGTRSQPALSLATWRAKGLLLEIGLEELRLGFEETREYLERSGLYLDEPCLKALYGQTEGWVVGVHLVSLWLRQQPQVQEMALLDGDKQAVSAYLLAAVFERLPGDLQEALLALGVASQLSGDLANALTGRQDGQALLERLESMQLFLLPLDRERQWYRFHLLFADFLRNRLRDSDPDRFKQLHFNASLWFTNHHMPTFAIEHACAAEDPEMIAALVDGCGLELINRGQLSLIYRWRKHVPDEIAERYPILVLTDVWSRASDLSLGEANRIIDELLARWGESRGDGPMGDQYLSALAVKAVVALQKDDLELCIALARRVEVQLGQNAAFLEVAVLITAALAQVVRGQGDQARRLLGLAQQRNHFLEGRYLDMQLANVEVILALEQGQVKQAQLLIERLRQRARPLFEKSRSALALPTITEALTAYYRIELDGLEERLGWALGHVDVINPIDFYAQGQICLARTQRLLGRPKEALASLAAMQALASRNQSWRFFAQAMAEEINLILQDSGPDRLKRAEQRLKSVDWNKMAAHYRNMAFNPVNWSLGVSRVRLLQGRGHFSEALHEITQLRGTLQPGWHGLQRLRLDILAALSYQRLGYQERANSLLGECLINAEREGVRSLFIEEGDGIRQLLQQLESTERQPALQTFIRGLLGIWPGQGVRKPQDALEEGLTEREREVVCLAAQGLSNEEIGQRLSLALGTVKWHLHNIYEKLKVRNRTQAIRRARELSLL
With B7, the binding entry is on record as “binds”.

B8: DNA-binding protein HU-beta (protein, UniProt P05384 1-90)
chain: MNKSELIDAIAASADIPKAVAGRALDAVIESVTGALKAGDSVVLVGFGTFAVKERAARTGRNPQTGKPIKIAAAKIPGFKAGKALKDAVN
For B8, the binding result is listed as “binds”.

B9: tRNA(Ile)-lysidine synthase (enzyme, UniProt Q9HXZ3 1-442)
chain: MPAVPLESRLLQALAPWREAGGWCVAFSGGLDSTVLLHLLAQLARSEALPALSALHVHHGLQAAADGWPAHCQAVCRSLGIPLRVERVQVAVGGSIEQAARDARYRAFQANLGEGQVLLTAQHLDDQAETLLFRLLRGAGLRGLAAMPASRPLGGGRLCRPLLGVSRAELEAYAQAHRLDWVEDPSNQDPRFSRNYLRREIMPRLASHWPQAVAGMARCAAHLREAEDLLAELAAIDLRACRQPSELDWPDWLDLPRIALEPLRRLSAARQRNLLRAWLGQLTRLPDSDHWAGWESLRDAGDDADPIWRLESGELRRGAGRIWWLPADWRAAAGPFVWERPAHPLLLPGNGRLALLGEVPAGPLRVDYRRGGEVLALAGRGRRDLKRLLNEAGVPSFLRGRLPLLFRADELLAVANIPGLDSPREGGWRLSWSPPTNDPGLS
As for B9, the binding entry is listed as “binds”.

B10: 50S ribosomal protein L28 (protein, UniProt Q9HTN8 1-78)
chain: MSRVCQVTGKGPVTGNNISHAHNKTRRRFLPNLQHHRFWVESEKRFVRLRVSAKGMRIIDKRGIEAVLADLRARGEKF
For the molecule B10, the binding result was “binds”.
